# Laboratory results: PubChem BioAssay AID1903 (Southern Research Specialized Biocontainment Screening …, 2009)
# Protein sequences, listed by entry. Tags and fused reporters are not part of them.
# UniProt P03070, whole entry: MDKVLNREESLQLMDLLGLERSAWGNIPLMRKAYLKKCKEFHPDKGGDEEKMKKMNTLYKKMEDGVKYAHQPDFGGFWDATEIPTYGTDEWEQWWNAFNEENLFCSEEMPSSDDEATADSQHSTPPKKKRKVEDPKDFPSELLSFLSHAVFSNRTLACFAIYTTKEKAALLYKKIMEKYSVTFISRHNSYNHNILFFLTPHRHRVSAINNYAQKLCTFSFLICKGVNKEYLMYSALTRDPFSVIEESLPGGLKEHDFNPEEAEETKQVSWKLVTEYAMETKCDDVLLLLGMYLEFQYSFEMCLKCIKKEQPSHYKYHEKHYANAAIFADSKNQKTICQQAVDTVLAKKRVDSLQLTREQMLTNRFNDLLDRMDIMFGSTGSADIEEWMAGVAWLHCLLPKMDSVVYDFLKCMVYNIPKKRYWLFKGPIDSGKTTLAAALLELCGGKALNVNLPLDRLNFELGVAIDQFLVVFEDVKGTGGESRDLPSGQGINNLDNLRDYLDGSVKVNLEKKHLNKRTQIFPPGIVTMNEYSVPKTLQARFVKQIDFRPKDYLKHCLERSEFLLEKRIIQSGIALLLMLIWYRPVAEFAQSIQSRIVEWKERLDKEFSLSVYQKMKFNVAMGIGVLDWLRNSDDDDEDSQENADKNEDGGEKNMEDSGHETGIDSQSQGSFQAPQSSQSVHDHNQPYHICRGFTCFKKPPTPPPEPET
# Screen size: about 310,000 compounds; about 1,200 (0.39%) were called active. All entries are inconclusive by the source's own rule. Clear calls are listed elsewhere. The rule behind the calls is not given here.
# Target: Large T antigen (Simian virus 40) (UniProt P03070)
# Assay: SV40 large T antigen inhibitors, biochemical (AID 1903)
# Settings: SV40 large T antigen ATPase/helicase inhibition assay; at 20 µM; hits give high values
row,SMILES,inhibition
1,COc1ccc(NC2CCN(CCc3ccccc3)CC2)c(OC)c1,inconclusive: 39.2%
